Experimental data published in patent US10085449B2, “N-[1-((6-chloropyridin-3-yl)methyl)pyridin-2(1H)-ylidene]-2,2,2- trifluoroacetamide for control of agricultural/horticultural pests” (priority 2010, dated 2018).
Read-outs that look alike come from different tables or passages of the source. Some entries share one result that the patent states for a list of compounds.

Legend:
Format in all cases: in vivo
western flower thrips = conditions: first-instar larvae on bean leaf discs, 3 days after release
Protocol: (§1) Leaf discs 2.8 cm in diameter were cut from bean plants grown in pots, and these were sprayed with solutions of the inventive compounds at a predetermined concentration prepared to 50% acetone/water (containing 0.05% Tween 20). The treated leaf discs were air dried, following which first-instar larvae were released onto the discs. The leaf discs and larvae were then held in an incubation chamber at 25° C. (16-hour period of light, 8-hour dark period). Three days after released, the numbers of live and dead insects were counted, and the mortality was calculated from the following formula. This was a two-replication test. Mortality (%)=[number of dead insects/(number of live insects+number of dead insects)]×100

diamondback moth = conditions: second-instar larvae on cabbage leaf discs, 3 days after release
Protocol: as §1, with “5.0” for “2.8”, “cabbage” for “bean”, “second-instar” for “first-instar”

cotton aphid = conditions: first-instar larvae on cucumber leaf discs, 3 days after release
Protocol: as §1, with “2.0” for “2.8”, “cucumber” for “bean”

[1] = tested on: Haemaphysalis longicornis; conditions: larval ticks, 1 day after release
Protocol: Glass vials having a capacity of 4 mL were each filled with 30 μL of an acetone solution containing 200 ppm or 10 ppm of the respective compounds. These filled vials were placed on a shaker and air-dried while being spun, thereby forming dry films of the compounds on the inner walls of the vials. After the vials had been dried for at least 24 hours, ten larval ticks (Haemaphysalis longicornis) were released into each vial, following which the vials were capped. The vials were then left at rest in an incubation chamber at 25° C., 85% humidity and complete darkness. One day after released, the numbers of live and dead ticks were counted, and the mortality was calculated from the following formula.
This test was carried out as two replications. Mortality (%)=[number of dead ticks/(number of live ticks+number of dead ticks)]×100

[2] = 200 ppm acetone solution (30 μL) dry film
[3] = 10 ppm acetone solution (30 μL) dry film

Measured: Mortality

C#CCN(C(C)c1ccc(Cl)nc1)S(=O)(=O)C(F)(F)F (stereo not shown) [Compound 171]
at least 80%: western flower thrips; 500 ppm foliar application | diamondback moth; 100 ppm foliar application | diamondback moth; 500 ppm foliar application

CCOC(=S)SCCN(C#N)Cc1cnc(Cl)s1 [Compound 137]
at least 80%: western flower thrips; 100 ppm foliar application | western flower thrips; 500 ppm foliar application | cotton aphid; 20 ppm foliar application | cotton aphid; 100 ppm foliar application | [1]; [2]

CCN(C(C)c1ccc(Cl)nc1)S(=O)(=O)C(F)(F)F (stereo not shown) [Compound 107]
at least 80%: western flower thrips; 500 ppm foliar application | diamondback moth; 100 ppm foliar application | diamondback moth; 500 ppm foliar application | [1]; [2]

CCN(Cc1ccc(Cl)nc1)[N+](=O)[O-] [Compound 208]
at least 80%: western flower thrips; 500 ppm foliar application | cotton aphid; 100 ppm foliar application | cotton aphid; 500 ppm foliar application | [1]; [3]

CCCOC(=S)SCCN(C#N)Cc1ccc(Cl)nc1 [Compound 93]
at least 80%: western flower thrips; 500 ppm foliar application | cotton aphid; 100 ppm foliar application | [1]; [3] | [1]; [2]

CCN(Cc1cccc(C#N)c1)S(=O)(=O)C(F)(F)F [Compound 182]
at least 80%: western flower thrips; 500 ppm foliar application | cotton aphid; 500 ppm foliar application

N#CCN(Cc1ccc(C(F)(F)F)nc1)S(=O)(=O)C(F)(F)F [Compound 165]
at least 80%: diamondback moth; 500 ppm foliar application | cotton aphid; 500 ppm foliar application | [1]; [3] | [1]; [2]

CCC(c1ccc(Cl)nc1)N(CC)C(=O)C(F)(F)F (stereo not shown) [Compound 111]
at least 80%: diamondback moth; 100 ppm foliar application | diamondback moth; 500 ppm foliar application | [1]; [2]

CCCCOC(=S)SCCN(C#N)Cc1ccc(Cl)nc1 [Compound 94]
at least 80%: western flower thrips; 500 ppm foliar application | cotton aphid; 20 ppm foliar application | cotton aphid; 100 ppm foliar application | [1]; [3] | [1]; [2]

CCN(Cc1ccccc1)C(=S)SCCN(C#N)Cc1ccc(Cl)nc1 [Compound 85, 2-[N-(6-chloro-3-pyridylmethyl)cyanamide]ethyl benzyl(ethyl)carbamodithioate]
at least 80%: western flower thrips; 500 ppm foliar application | cotton aphid; 100 ppm foliar application | cotton aphid; 500 ppm foliar application

CCC(c1ccc(Cl)nc1)N(CC(F)F)S(=O)(=O)C(F)(F)F (stereo not shown) [Compound 110]
at least 80%: diamondback moth; 500 ppm foliar application

CN(Cc1ccc(Cl)nc1)S(=O)(=O)C(F)(F)F [Compound 135]
at least 80%: western flower thrips; 500 ppm foliar application | cotton aphid; 500 ppm foliar application | [1]; [2]

C=CCN(Cc1ccc(Cl)nc1)S(=O)(=O)C(F)(F)F [Compound 146]
at least 80%: western flower thrips; 500 ppm foliar application | diamondback moth; 500 ppm foliar application

C#CCN(Cc1ccc(Cl)nc1)S(=O)(=O)CC(F)(F)F [Compound 179]
at least 80%: diamondback moth; 500 ppm foliar application | cotton aphid; 500 ppm foliar application

N#CN(CCC(=O)Oc1ccccc1)Cc1ccc(Cl)nc1 [Compound 58]
at least 80%: cotton aphid; 500 ppm foliar application | [1]; [3] | [1]; [2]

C=CCN(C#N)Cc1ccc(Cl)nc1 [Compound 43]
at least 80%: cotton aphid; 100 ppm foliar application | cotton aphid; 500 ppm foliar application | [1]; [3] | [1]; [2]

CCC(c1ccc(Cl)nc1)N(CC)S(=O)(=O)C(F)(F)F (stereo not shown) [Compound 112]
at least 80%: diamondback moth; 100 ppm foliar application | diamondback moth; 500 ppm foliar application | [1]; [2]

CC(C)N(C#N)Cc1ccc(Cl)nc1 [Compound 15, 2-chloro-5-(N-cyano-N-2-isopropyl)aminomethylpyridine]
at least 80%: cotton aphid; 500 ppm foliar application | [1]; [2]

CCCOC(=S)SCCCN(C#N)Cc1ccc(Cl)nc1 [Compound 102]
at least 80%: cotton aphid; 100 ppm foliar application | cotton aphid; 500 ppm foliar application | [1]; [2]

CCN(Cc1ccc(Cl)cc1)S(=O)(=O)C(F)(F)F [Compound 181]
at least 80%: western flower thrips; 500 ppm foliar application | diamondback moth; 500 ppm foliar application

CCC(=O)N(Cc1ccc(Cl)nc1)C(F)F [Compound 204]
at least 80%: cotton aphid; 100 ppm foliar application | [1]; [2]

CC(c1ccc(Cl)nc1)N(CC#N)S(=O)(=O)C(F)(F)F (stereo not shown) [Compound 170]
at least 80%: western flower thrips; 500 ppm foliar application | diamondback moth; 500 ppm foliar application | cotton aphid; 500 ppm foliar application

CCN(Cc1ccccc1)C(=S)SCCN(C#N)Cc1cnc(Cl)s1 [Compound 138]
at least 80%: cotton aphid; 20 ppm foliar application | cotton aphid; 100 ppm foliar application | [1]; [2]

CCN(Cc1ccc(C#N)cc1)S(=O)(=O)C(F)(F)F [Compound 186]
at least 80%: western flower thrips; 100 ppm foliar application | western flower thrips; 500 ppm foliar application | diamondback moth; 100 ppm foliar application | diamondback moth; 500 ppm foliar application | cotton aphid; 100 ppm foliar application | cotton aphid; 500 ppm foliar application

O=C(N(CCF)Cc1ccc(Cl)nc1)C(F)(F)F [Compound 81]
at least 80%: diamondback moth; 100 ppm foliar application | diamondback moth; 500 ppm foliar application | cotton aphid; 500 ppm foliar application

CC(C)OC(=S)SCCN(C#N)Cc1ccc(Cl)nc1 [Compound 90]
at least 80%: western flower thrips; 100 ppm foliar application | western flower thrips; 500 ppm foliar application | cotton aphid; 20 ppm foliar application | cotton aphid; 100 ppm foliar application

C=CCN(C#N)Cc1cnc(Cl)s1 [Compound 119]
at least 80%: cotton aphid; 500 ppm foliar application | [1]; [2]

CSCCN(C#N)Cc1cnc(Cl)c(Cl)c1 [Compound 72]
at least 80%: cotton aphid; 500 ppm foliar application | [1]; [2]

CCC(c1ccc(Cl)nc1)N(CC(F)F)C(=O)C(F)(F)F (stereo not shown) [Compound 109]
at least 80%: diamondback moth; 500 ppm foliar application | [1]; [2]

O=S(=O)(N(Cc1ccccc1)Cc1ccc(Cl)nc1)C(F)(F)F [Compound 147]
at least 80%: western flower thrips; 500 ppm foliar application

CCN(C#N)Cc1ccsc1 [Compound 41]
at least 80%: cotton aphid; 500 ppm foliar application | [1]; [2]

N#CN(CCSCc1ccccc1)Cc1ccc(Cl)nc1 [Compound 50]
at least 80%: western flower thrips; 500 ppm foliar application | cotton aphid; 100 ppm foliar application | cotton aphid; 500 ppm foliar application | [1]; [2]

CCN(Cc1ccc(F)cc1)S(=O)(=O)C(F)(F)F [Compound 188]
at least 80%: diamondback moth; 500 ppm foliar application

N-[1-(6-chloro-3-pyridyl)ethyl]-N-cyanoethylamino [Compound 18]
at least 80%: cotton aphid; 20 ppm foliar application | cotton aphid; 100 ppm foliar application | cotton aphid; 500 ppm foliar application | [1]; [3] | [1]; [2]

CCN(Cc1cccc(Cl)c1)S(=O)(=O)C(F)(F)F [Compound 180]
at least 80%: diamondback moth; 500 ppm foliar application

CN(Cc1ccccc1)C(=S)SCCN(C#N)Cc1ccc(Cl)nc1 [Compound 88]
at least 80%: cotton aphid; 20 ppm foliar application | cotton aphid; 100 ppm foliar application | cotton aphid; 500 ppm foliar application | [1]; [3] | [1]; [2]

N#CCN(Cc1cnc(Cl)c(F)c1)S(=O)(=O)C(F)(F)F [Compound 167]
at least 80%: western flower thrips; 500 ppm foliar application | diamondback moth; 500 ppm foliar application | cotton aphid; 500 ppm foliar application

C#CCN(C#N)Cc1ccc(Cl)nc1 [Compound 42, 2-chloro-5-[N-cyano-N-(2-propargyl)]aminomethylpyridine]
at least 80%: cotton aphid; 500 ppm foliar application | [1]; [3] | [1]; [2]

CCOC(=S)SCCN(C#N)Cc1ccc(Cl)nc1 [Compound 86, 2-[N-(6-Chloro-3-pyridylmethyl)cyanamide]ethyl O-ethylcarbonodithioate]
at least 80%: western flower thrips; 500 ppm foliar application | cotton aphid; 20 ppm foliar application | cotton aphid; 100 ppm foliar application | [1]; [2]

CCCCCOC(=S)SCCN(C#N)Cc1ccc(Cl)nc1 [Compound 91]
at least 80%: western flower thrips; 100 ppm foliar application | western flower thrips; 500 ppm foliar application | cotton aphid; 20 ppm foliar application | cotton aphid; 100 ppm foliar application | [1]; [3] | [1]; [2]
